Results reported in patent US20200031785A1, “METHODS FOR TREATING CHRONIC PAIN AND OPIOID DEPENDENCE USING ADENYLYL CYCLASE INHIBITORS” (Purdue Research Foundation, priority 2017, published 2020).
The source holds more than one record for some entries. The list is limited to them. An entry can have further records. Results that share an entry differ for a reason that is not stated; they may come from other doses, times, organisms or constructs than stated.

Protein sequences, listed by entry. Tags and fused reporters are not part of them.
UniProt Q08828, whole entry: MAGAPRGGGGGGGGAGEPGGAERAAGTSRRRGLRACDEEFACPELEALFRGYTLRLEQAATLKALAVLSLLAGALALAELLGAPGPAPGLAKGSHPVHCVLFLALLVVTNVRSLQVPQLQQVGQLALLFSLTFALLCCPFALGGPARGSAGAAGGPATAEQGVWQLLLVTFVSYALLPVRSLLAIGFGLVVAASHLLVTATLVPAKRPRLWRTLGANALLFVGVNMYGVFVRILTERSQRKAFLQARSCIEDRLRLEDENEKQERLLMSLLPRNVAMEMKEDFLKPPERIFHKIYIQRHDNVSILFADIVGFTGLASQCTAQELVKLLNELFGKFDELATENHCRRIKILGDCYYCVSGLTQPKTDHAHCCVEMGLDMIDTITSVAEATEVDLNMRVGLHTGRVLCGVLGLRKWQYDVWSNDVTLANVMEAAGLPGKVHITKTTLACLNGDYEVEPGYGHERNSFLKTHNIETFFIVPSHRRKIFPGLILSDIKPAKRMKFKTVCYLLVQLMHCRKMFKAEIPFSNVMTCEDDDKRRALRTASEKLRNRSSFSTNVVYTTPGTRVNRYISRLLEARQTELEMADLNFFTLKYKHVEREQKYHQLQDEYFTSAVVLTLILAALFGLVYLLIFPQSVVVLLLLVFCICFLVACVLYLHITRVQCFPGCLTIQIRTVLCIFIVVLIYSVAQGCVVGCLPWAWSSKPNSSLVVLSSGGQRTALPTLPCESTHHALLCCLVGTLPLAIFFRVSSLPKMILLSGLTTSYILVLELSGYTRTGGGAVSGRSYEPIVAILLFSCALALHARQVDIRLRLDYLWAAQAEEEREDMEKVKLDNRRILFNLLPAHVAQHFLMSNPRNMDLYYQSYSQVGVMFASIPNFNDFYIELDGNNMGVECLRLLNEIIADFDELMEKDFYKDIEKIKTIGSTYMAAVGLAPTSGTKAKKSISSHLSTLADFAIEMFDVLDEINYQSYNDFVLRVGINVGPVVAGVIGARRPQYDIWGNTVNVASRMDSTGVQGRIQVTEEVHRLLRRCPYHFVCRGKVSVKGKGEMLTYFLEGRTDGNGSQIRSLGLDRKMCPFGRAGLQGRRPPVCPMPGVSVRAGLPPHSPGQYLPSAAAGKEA

Biological target: hAC1 (Homo sapiens, UniProt Q08828)
Test: Cyclic AMP accumulation in HEK cells stably expressing AC1, stimulated with A23187 (HTRF)
Conditions: AC8 IC50/AC1 IC50; in the absence of AC8 IC50, estimate based on IC50 ≥30 μM

## CCc1cc(=O)[nH]c(-n2nc(C)cc2NC(=O)c2ccccc2F)n1 [F2215-0213]
  Selectivity AC1 vs AC8: at least 60 fold and >60-fold
